Results are given in words; binding and its absence hold for the method and conditions named. Each block holds one binder with its values, some of them ahead of it.
Legend:
[1] = target: NUCB1 ΔZ (31-320 aa) (human) (UniProt Q02818); experiment: SEC; size-exclusion chromatography of the final preparations on Superdex 200 in 150 mM NaCl, 50 mM Tris-HCl (pH 8.0); oligomeric state of each protein; both purified
[2] = target: NUCB1 CaBD (228-326 aa) (human) (UniProt Q02818); experiment: as above

binding [1]: no binding
B1: NUCB1 ΔZ (31-320 aa) (domain or fragment, UniProt Q02818 31-320)
chain: RGAPNKEETPATESPDTGLYYHRYLQEVIDVLETDGHFREKLQAANAEDIKSGKLSRELDFVSHHVRTKLDELKRQEVSRLRMLLKAKMDAEQDPNVQVDHLNLLKQFEHLDPQNQHTFEARDLELLIQTATRDLAQYDAAHHEEFKRYEMLKEHERRRYLESLGEEQRKEAERKLEEQQRRHREHPKVNVPGSQAQLKEVWEELDGLDPNRFNPKTFFILHDINSDGVLDEQELEALFTKELEKVYDPKNEEDDMREMEEERLRMREHVMKNVDTNQDRLVTLEEFLAS

binding [2]: no binding
B2: NUCB1 CaBD (228-326 aa) (domain or fragment, UniProt Q02818 228-326)
chain: LKEVWEELDGLDPNRFNPKTFFILHDINSDGVLDEQELEALFTKELEKVYDPKNEEDDMREMEEERLRMREHVMKNVDTNQDRLVTLEEFLASTQRKEF

— paper PMC10093973, “The RNA-Binding and RNA-Melting Activities of the Multifunctional Protein Nucleobindin 1” (International Journal of Molecular Sciences, 2023)
